Reference: publication PMC10163288
This is one part of the list.

B1: il2ra_site1_1z92_sap_11_mot_HHH_eva_0265_000000128_0001_1_18_H_._HHH_b2_04596_0001_0000200016_0000001_0_0001_af2pred_dldesign_0_af2pred (protein)
chain: SLEDRIREAFKRGRIAKLLRELFAELEARLGDPEAARAELTDIVARTLDCPREDADRLIELALKP
B2: il2ra_site1_1z92_sap_18_mot_22aa8d8ad8dce7f663ea8fa348a52261_0001_000000005_0001_37_51_H_._a4d94f43bc0d423f3d0edd362bd39fea_0001_af2_0001_0000100001_0000001_0_0 … (protein)
chain: SLEEEVEELLREAGVPPSDIKNLKRLIELAKEQGVPPEDILRDLIRLLEFLGDPEAARLLQELLK
B3: il2ra_site1_1z92_normal_mot_HHH_b1_07537_af2_000000083_0001_43_56_H_._HHH_b1_04212_af2_0001_0000300027_0000001_0_af2pred_dldesign_0_af2pred (protein)
chain: SSSSSSPDELADKVDDLFKEALKLSDKEKRKELLEKALELAEKAESPKLVKEVRDYLSRLSSSSS
B4: il2ra_site2_3nfp_sap_19_mot_HHH_b2_04113_af2_000000292_0001_1_18_H_._HHH_b2_00306_0001_0000100003_0000001_1_0001 (protein)
chain: SDEREELLEKSVEYLRAFLKVLENPEAQEVVRRAVEVLEEAIEKQDPELRHEAIELLFEAAELLS
B5: il2ra_site2_3nfp_sap_22_mot_HHH_b2_05281_000000198_0001_39_56_H_._HHH_b1_07161_0001_0000200018_0000001_0_0001 (protein)
chain: SSSSSSWEVMQLAAEAIELDRNGNPEEARKVLEKAEELAEEEGDEWALEYVRARLLLLERSSSSS
B6: il2ra_site2_3nfp_normal_mot_HHH_b1_01086_000000225_0001_20_36_H_._HHH_b2_04820_af2_0001_0000400031_0000001_0_af2pred_0001_af2pred_1 (protein)
chain: SSSSDVEEEVRRLLEEAEELLEEGDKEEAERVLRKASELAREANNHELFAAVMQLLELVGSSSSS
B7: il2ra_site1_2b5i_normal_mot_HHH_b2_03466_af2_000000069_0001_42_56_H_._HHH_b1_06107_0001_0000300010_0000001_0_af2pred_0001_af2pred_1 (protein)
chain: SSSSDERREELRELLEEALELIRNGNPEEARKVLEKAEELAEELNDRAMLKLIRLALEEVSSSSS
B8: il2ra_site2_2erj_normal_mot_11d5c034b8d8655e840008a001915456_0001_af2_000000095_0001_16_32_H_._HHH_b1_02299_0001_0000300011_0000001_0 (protein)
chain: SSSSDEEERRVNKLLREAIELFQEGNPEEAEKLLEEALELARELGDPRLQEAVEFALHVLRSSSS
B9: il2ra_site1_2b5i_sap_12_mot_HHH_b1_03134_af2_000000081_0001_1_21_H_._HHH_b2_02519_0001_0000200009_0000001_0_0001_af2pred_dldesign_0_af2pred (protein)
chain: SSSSSGFAREGLLKANEAFQNENAEELKKLLEEMKKLAEETKDPNLVRVAKLIEAALEELSSSSS
B10: il2ra_site1_3nfp_sap_8_mot_HHH_b1_01335_af2_000000105_0001_39_53_H_._HHH_b2_06296_0001_0000300022_0000001_0_0001 (protein)
chain: NDAEQASKIIEEALKSLGAKSFEVEVENNEVTVTVEGDDERSREVREAAKHVAKAVGVPVEVESE
B11: il2ra_site1_1z92_sap_19_mot_HHH_b1_02658_af2_000000167_0001_43_56_H_._HEEHE_3358_0001_0000100005_0000001_0_0001_af2pred_0001_af2pred_swapped (protein)
chain: SARELLKQLEKELGDPREALRIALEFVERLAGDPRLAVQFLKRVLRKLNDPELEELLRELEEELR
B12: il2ra_site2_3nfp_sap_22_mot_HHH_b1_02226_af2_000000060_0001_38_52_H_._HHH_b1_01373_0001_0000300028_0000001_1_0001 (protein)
chain: SSSSDEEQREVEELLEEARKAIEEGDPYKAAQLLVEAAELIAKLNDEELARILLELFAELQSSSS
B13: il2ra_site2_3nfp_sap_21_mot_HHH_b1_01379_af2_000000227_0001_41_54_H_._HHH_b2_08355_0001_0000100001_0000001_0_0001 (protein)
chain: SSSSSDDEEIIRYAALAAKLARETVSEEDQEKLEELLRELEEEGDPRLAAELAQLAAELLSSSSS
B14: il2ra_site1_1z92_normal_mot_2548690152cc24afdf538b66510d0e06_0001_af2_000000007_0001_37_50_H_._66959ead3e6c57cb3ef8243f3eb758e0_0001_1_0001_0000100014_0000001_0 … (protein)
chain: NTSEELLREAVEKNDEEELREFIKLALEDAGDPRLVKQLLKILVKRLGLPPEVLERLEELLEELT
B15: il2ra_site2_2erj_normal_mot_HHH_b1_07975_000000000_0001_41_57_H_._HHH_b2_05199_af2_0001_0000500037_0000001_0 (protein)
chain: SSSSNEELRRLFELFNILLELLQEGDEEEFEKVLEEAKELAKELQSESAEEALEWLERLLSSSSS
B16: il2ra_site1_2b5i_normal_mot_HHH_b2_04910_000000118_0001_1_19_H_._HHH_b1_00058_af2_0001_0000700020_0000001_0_af2pred_dldesign_0_af2pred (protein)
chain: SSSSSAVAEARELFLEADKLFQAGKEEEALKKLEEALRLATEAGAKLLVRIIELAIENLKSSSSS
B17: il2ra_site1_1z92_sap_17_mot_HHH_b2_05238_af2_000000252_0001_38_55_H_._HHH_b1_02400_0001_0000200030_0000001_0_0001_af2pred_dldesign_0_af2pred (protein)
chain: SSSSSSREVAADRLVDYFVEANGLSEEQRAELRARARAMVAAGVSPIEIAEWLQELSKKLSSSSS
B18: il2ra_site2_3nfp_normal_mot_HHH_b2_05281_000000198_0001_39_56_H_._HHH_b1_08465_0001_0000200009_0000001_0 (protein)
chain: SSSSDLEEEVRELLKRAEELLEKGNPEEARKLIAEAVQLVYENRNAELFYLVAEVAFKLHQSSSS
B19: il2ra_site1_3nfp_normal_mot_eb5a5eebac1e5153f932cc6c3f4b2787_0001_af2_000000100_0001_18_33_H_._3adf794c310dfc5b06560a56f1fbbe6f_0001_1_0001_0000100005_0000001_0 … (protein)
chain: NAERLLEELIRAAEERGDEEVVEFLRELLRLLREGDPEAYKLVEELAEVAAKDLEKALELAKELR

biological target: il2ra, P01589; experiment: yeast display titration

| Binder | apparent Kd |
| --- | --- |
| B1 | inactive: no binding seen |
| B2 | inactive: no binding seen |
| B3 | inactive: no binding seen |
| B4 | inactive: no binding seen |
| B5 | inactive: no binding seen |
| B6 | inactive: no binding seen |
| B7 | inactive: no binding seen |
| B8 | inactive: no binding seen |
| B9 | inactive: no binding seen |
| B10 | inactive: no binding seen |
| B11 | inactive: no binding seen |
| B12 | inactive: no binding seen |
| B13 | inactive: no binding seen |
| B14 | inactive: no binding seen |
| B15 | inactive: no binding seen |
| B16 | inactive: no binding seen |
| B17 | inactive: no binding seen |
| B18 | inactive: no binding seen |
| B19 | inactive: no binding seen |

As a working copy, some entries already given.

| Binder | apparent Kd |
| --- | --- |
| B18 | inactive: no binding seen |
| B19 | inactive: no binding seen |
